# Source: paper PMC7433898
# Amino acid sequences for entries named in this document (tags omitted). A change or cut given only in a name is not applied to a line headed by its entry.
# UniProt Q16666: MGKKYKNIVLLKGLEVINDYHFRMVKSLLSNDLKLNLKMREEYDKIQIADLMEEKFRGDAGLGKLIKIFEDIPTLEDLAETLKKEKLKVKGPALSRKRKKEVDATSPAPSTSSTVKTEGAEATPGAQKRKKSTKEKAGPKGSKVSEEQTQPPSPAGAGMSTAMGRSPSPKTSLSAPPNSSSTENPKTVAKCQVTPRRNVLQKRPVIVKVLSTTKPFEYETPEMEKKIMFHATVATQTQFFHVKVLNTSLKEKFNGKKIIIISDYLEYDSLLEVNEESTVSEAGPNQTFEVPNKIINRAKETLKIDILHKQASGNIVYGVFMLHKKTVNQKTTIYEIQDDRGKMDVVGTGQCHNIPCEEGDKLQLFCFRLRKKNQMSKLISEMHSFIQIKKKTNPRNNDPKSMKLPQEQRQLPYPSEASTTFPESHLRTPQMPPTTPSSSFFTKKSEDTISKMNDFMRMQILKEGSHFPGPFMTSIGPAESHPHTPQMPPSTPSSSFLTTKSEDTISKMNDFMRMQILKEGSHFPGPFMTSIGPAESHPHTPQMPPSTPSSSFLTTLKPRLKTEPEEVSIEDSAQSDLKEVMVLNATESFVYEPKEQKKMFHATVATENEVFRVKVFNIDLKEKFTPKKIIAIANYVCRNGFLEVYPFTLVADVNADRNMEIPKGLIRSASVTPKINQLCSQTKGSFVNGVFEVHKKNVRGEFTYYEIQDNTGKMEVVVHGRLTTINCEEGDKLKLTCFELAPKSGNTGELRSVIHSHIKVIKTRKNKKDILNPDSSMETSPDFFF
# UniProt P08047: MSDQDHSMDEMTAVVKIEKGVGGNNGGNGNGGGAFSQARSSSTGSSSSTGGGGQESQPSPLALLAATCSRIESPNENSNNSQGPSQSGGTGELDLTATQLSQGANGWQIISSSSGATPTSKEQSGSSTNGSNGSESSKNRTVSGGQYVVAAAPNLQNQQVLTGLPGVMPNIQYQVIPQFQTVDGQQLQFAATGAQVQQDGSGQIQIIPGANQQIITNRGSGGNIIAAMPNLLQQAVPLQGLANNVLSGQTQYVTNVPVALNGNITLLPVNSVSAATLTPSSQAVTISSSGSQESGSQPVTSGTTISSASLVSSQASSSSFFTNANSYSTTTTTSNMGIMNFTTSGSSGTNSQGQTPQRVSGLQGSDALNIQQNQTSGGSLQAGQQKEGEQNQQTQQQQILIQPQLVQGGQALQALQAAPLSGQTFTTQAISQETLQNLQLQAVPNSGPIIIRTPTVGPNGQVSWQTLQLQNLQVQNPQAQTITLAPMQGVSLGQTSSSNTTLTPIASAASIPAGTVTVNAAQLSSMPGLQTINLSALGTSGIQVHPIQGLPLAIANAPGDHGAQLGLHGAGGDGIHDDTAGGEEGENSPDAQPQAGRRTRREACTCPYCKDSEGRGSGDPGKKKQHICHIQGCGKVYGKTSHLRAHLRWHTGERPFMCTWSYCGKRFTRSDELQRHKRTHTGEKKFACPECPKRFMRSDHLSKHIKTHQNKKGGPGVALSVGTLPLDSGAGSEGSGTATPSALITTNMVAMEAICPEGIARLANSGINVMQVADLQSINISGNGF
# No constants are given. Whether binding was seen depends on the method and setting. Binding seen in cells or lysates may run through a third protein. A result given as binding can be weak or reduced; the word gives no strength.
# Molecular target: HA-tagged IFI16 (human) (UniProt Q16666)
# Test: co-IP; HEK293T cotransfected with C-FLAG tagged Sp1 mutants and HA-tagged IFI16; lysates pre-cleaned with beads; IFI16 immunoprecipitated with anti-HA overnight at 4°C, beads 4 h at 4°C; anti-FLAG blot
row,Substance,binding
1,FLAG-tagged Sp1 with a deletion of the C-terminus (from UniProt P08047),binds
2,FLAG-tagged Sp1 with a deletion of transactivator domain A (from UniProt P08047),binds
3,FLAG-tagged Sp1 with a deletion of transactivator domain B (from UniProt P08047),binds

# Now from value to substance:
row,binding,Substance
1,binds,FLAG-tagged Sp1 with a deletion of the N-terminal region (from UniProt P08047)
2,no binding,FLAG-tagged Sp1 with a deletion of the Zn-finger domain (from UniProt P08047)
3,binds,FLAG-tagged Sp1 with a deletion of the highly charged region (from UniProt P08047)
